We go through three molecules from paper doi:10.1101/559146.

Results are given in words; binding and its absence hold for the method and conditions named. In cells and extracts the contact can be indirect. These calls come from enrichment with a bait or labelling near it, and not all partners need be listed. For part of these data: No binding means not detected with the bait. Where a sequence is shown, tags or fusion partners need not be part of it.

What all share (test): affinity purification with mass spectrometry
For experiment [1], the target named is T1, Rps2(1-73)-GFP (S. cerevisiae) (UniProt P25443).
T1 sequence: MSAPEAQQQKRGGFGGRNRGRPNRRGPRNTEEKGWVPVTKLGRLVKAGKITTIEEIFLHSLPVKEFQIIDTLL

For experiment [2], the target named is T2, Rps2(Δ74-223)-GFP (S. cerevisiae) (UniProt P25443).
T2 sequence: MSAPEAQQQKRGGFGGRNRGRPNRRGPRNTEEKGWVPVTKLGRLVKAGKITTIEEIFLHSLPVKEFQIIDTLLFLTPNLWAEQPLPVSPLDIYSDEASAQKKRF

In experiment [3] the target is T3, Rps2(224-254)-GFP (S. cerevisiae) (UniProt P25443).
T3 sequence: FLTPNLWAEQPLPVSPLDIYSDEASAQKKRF

For experiment [4], the target named is T4, Rps2(1-235)-GFP (S. cerevisiae) (UniProt P25443).
T4 sequence: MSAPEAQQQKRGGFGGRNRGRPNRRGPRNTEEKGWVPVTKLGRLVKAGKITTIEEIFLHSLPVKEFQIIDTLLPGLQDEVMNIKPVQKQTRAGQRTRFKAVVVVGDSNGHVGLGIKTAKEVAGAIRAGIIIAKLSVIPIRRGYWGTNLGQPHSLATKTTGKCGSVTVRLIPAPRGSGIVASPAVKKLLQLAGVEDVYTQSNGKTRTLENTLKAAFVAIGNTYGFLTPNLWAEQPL

Experiment [5] deals with T5, full-length Rps2-GFP (S. cerevisiae) (UniProt P25443).
T5 sequence: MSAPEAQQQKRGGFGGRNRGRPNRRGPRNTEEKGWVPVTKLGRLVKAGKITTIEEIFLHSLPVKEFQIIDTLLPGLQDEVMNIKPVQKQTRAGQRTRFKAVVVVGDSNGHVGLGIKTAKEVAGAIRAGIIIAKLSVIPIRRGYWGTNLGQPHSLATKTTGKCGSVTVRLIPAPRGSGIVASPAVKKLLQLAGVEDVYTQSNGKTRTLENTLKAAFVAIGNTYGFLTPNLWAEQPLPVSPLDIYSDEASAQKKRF

The target of experiment [6] is T6, Rps2(1-223)-GFP (S. cerevisiae) (UniProt P25443).
T6 sequence: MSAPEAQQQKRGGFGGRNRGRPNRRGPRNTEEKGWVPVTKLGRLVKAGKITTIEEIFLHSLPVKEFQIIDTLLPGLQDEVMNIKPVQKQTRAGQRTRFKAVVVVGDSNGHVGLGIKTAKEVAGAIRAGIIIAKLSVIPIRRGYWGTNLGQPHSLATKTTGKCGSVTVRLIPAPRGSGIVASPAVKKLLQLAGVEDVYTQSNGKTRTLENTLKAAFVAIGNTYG

B1: Kap104 (protein, UniProt P38217 1-918)
chain: MASTWKPAEDYVLQLATLLQNCMSPNPEIRNNAMEAMENFQLQPEFLNYLCYILIEGESDDVLKQHYSLQDLQNNRATAGMLLKNSMLGGNNLIKSNSHDLGYVKSNIIHGLYNSNNNLVSNVTGIVITTLFSTYYRQHRDDPTGLQMLYQLLELTSNGNEPSIKALSKIMEDSAQFFQLEWSGNTKPMEALLDSFFRFISNPNFSPVIRSESVKCINTVIPLQTQSFIVRLDKFLEIIFQLAQNDENDLVRAQICISFSFLLEFRPDKLVSHLDGIVQFMLHLITTVNEEKVAIEACEFLHAFATSPNIPEHILQPYVKDIVPILLSKMVYNEESIVLLEASNDDDAFLEDKDEDIKPIAPRIVKKKEAGNGEDADDNEDDDDDDDDEDGDVDTQWNLRKCSAATLDVMTNILPHQVMDIAFPFLREHLGSDRWFIREATILALGAMAEGGMKYFNDGLPALIPFLVEQLNDKWAPVRKMTCWTLSRFSPWILQDHTEFLIPVLEPIINTLMDKKKDVQEAAISSVAVFIENADSELVETLFYSQLLTSFDKCLKYYKKKNLIILYDAIGRFAEKCALDETAMQIILPPLIEKWALLSDSDKELWPLLECLSCVASSLGERFMPMAPEVYNRAFRILCHCVELEAKSHQDPTIVVPEKDFIITSLDLIDGLVQGLGAHSQDLLFPQGTKDLTILKIMLECLQDPVHEVRQSCFALLGDIVYFFNSELVIGNLEDFLKLIGTEIMHNDDSDGTPAVINAIWALGLISERIDLNTYIIDMSRIILDLFTTNTQIVDSSVMENLSVTIGKMGLTHPEVFSSGAFANDSNWNKWCLSVNALDDVEEKSSAYMGFLKIINLTSTEVTMSNDTIHKIVTGLSSNVEANVFAQEIYTFLMNHSAQISAINFTPDEISFLQQFTS
For the molecule B1, the binding entry in experiment [1], in experiment [2] and in experiment [3] was “no binding” throughout.

B2: Kap123 (protein, UniProt P40069 1-1113)
chain: MDQQFLSQLEQTLHAITSGVGLKEATKTLQTQFYTQPTTLPALIHILQNGSDDSLKQLAGVEARKLVSKHWNAIDESTRASIKTSLLQTAFSEPKENVRHSNARVIASIGTEELDGNKWPDLVPNLIQTASGEDVQTRQTAIFILFSLLEDFTSSLSGHIDDFLALFSQTINDPSSLEIRSLSAQALNHVSALIEEQETINPVQAQKFAASIPSVVNVLDAVIKADDTMNAKLIFNCLNDFLLLDSQLTGNFIVDLIKLSLQIAVNSEIDEDVRVFALQFIISSLSYRKSKVSQSKLGPEITVAALKVACEEIDVDDELNNEDETGENEENTPSSSAIRLLAFASSELPPSQVASVIVEHIPAMLQSANVFERRAILLAISVAVTGSPDYILSQFDKIIPATINGLKDTEPIVKLAALKCIHQLTTDLQDEVAKFHEEYLPLIIDIIDSAKNIVIYNYATVALDGLLEFIAYDAIAKYLDPLMNKLFYMLESNESSKLRCAVVSAIGSAAFAAGSAFIPYFKTSVHYLEKFIQNCSQIEGMSEDDIELRANTFENISTMARAVRSDAFAEFAEPLVNSAYEAIKTDSARLRESGYAFIANLAKVYGENFAPFLKTILPEIFKTLELDEYQFNFDGDAEDLAAFADSANEEELQNKFTVNTGISYEKEVASAALSELALGTKEHFLPYVEQSLKVLNEQVDESYGLRETALNTIWNVVKSVLLASKVEPESYPKGIPASSYVNADVLAVIQAARETSMGNLSDEFETSMVITVMEDFANMIKQFGAIIIMDNGDSSMLEALCMQVLSVLKGTHTCQTIDIEEDVPRDEELDASETEATLQDVALEVLVSLSQALAGDFAKVFDNFRPVVFGLFQSKSKNKRSSAVGAASELALGMKEQNPFVHEMLEALVIRLTSDKSLEVRGNAAYGVGLLCEYASMDISAVYEPVLKALYELLSAADQKALAAEDDEATREIIDRAYANASGCVARMALKNSALVPLEQTVPALLAHLPLNTGFEEYNPIFELIMKLYQENSPVITNETPRIIEIFSAVFTKENDRIKLEKESTLGREENMERLKQFQTEEMKHKVIELLKYLNTTYNGIVAQNPVLAAVIA
As for B2, the binding entry in experiment [1], in experiment [2] and in experiment [3] was “no binding” throughout.

B3: Tsr4 (protein, UniProt P25040 1-408)
chain: MSKIEELPPSDTDDHSYSSKPGDVFLAFVDAPVKETDDILVEDSFIGGEPKWLHPDSEPPAELLKCGACKSADNMKLLLQAFSPLDDEQMSAIQQRLGINNMSYINPQDDRVLYVFLCTECQRKGNSVRCIRGVKKNKNVDSLSEKMASTSLEKDFQINPFDLSNNSDSKCNAFSSNPFGGANANPFGADSINSNISQSKDEGKKKESATVSAKTARKLHDLQKDKEYDGNKCFKSCLLYVEEETFKNKKPAHLQLPKNLKIDKEALDLTGDEDLEKDPIKLDPRTEKLSKFLDDDTFQKFQEVVGYNPLQVLRYDLGGKPLLYAETKVDILSTVPRPGYNPSSQRIFEMQLMPKMIFDLEEVVSVDNGMEWGTILVFTDVENYMPEFDEHGVGYVEECVKVQWESRT
For the molecule B3, the binding result in experiment [4] is listed as “binds”; in experiment [1], “binds”; in experiment [2] it was “binds”; in experiment [5], “binds”; in experiment [6] it was “binds”; in experiment [3], “no binding”.
